Taken from: PubChem BioAssay AID602196 (INSERM, 2012)
This is an unselected part of about 23,000 deposited reagents. Over the whole deposit, 455 (2%) are marked active. 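Active includes both protection and sensitisation; some change values fall well beyond the stated -50 to +50 range.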 Entries without a mark were called inactive. The record does not give: the amount of reagent.

- Screen: 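Modifiers of cisplatin sensitivity in A549 cells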
- System: human A549 lung cancer cells
- Reagents: siRNA pair against human genes
- Time to read-out: 48 h transfection before cisplatin; time from cisplatin to read-out not stated
- Treatment: cisplatin at a dose killing half of control-siRNA cells; exact dose and duration not given
- Measurement: 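Cisplatin cell death as a shift from the 50% death seen with control siRNA; siRNAs toxic or growth-blocking alone scored 0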
- Direction: two-siRNA summed score (-2 to +2): higher = both siRNAs protect from cisplatin killing; -2 means both sensitise; mean protection from cisplatin (shift in death) and protection from cisplatin (shift in death), siRNA C and protection from cisplatin (shift in death), siRNA D: higher = protection from cisplatin killing
- Rule for the call: 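siRNAs harmful alone (LDH or WST-1) get 0; others get +1 for less and -1 for more cisplatin killing; genes are active when the two siRNAs give the same sign, summing to ±2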
- Calls: active = both siRNAs shift cisplatin killing the same way; inactive = no consistent shift, or siRNA harmful alone

The first 3 entries, to show the layout:
target	two-siRNA summed score (-2 to +2)	mean protection from cisplatin (shift in death) (%)	protection from cisplatin (shift in death), siRNA C (%)	protection from cisplatin (shift in death), siRNA D (%)
CIP2A (cellular inhibitor of PP2A)	0	-21.9	0.9	-44.6
RUSC2 (RUN and SH3 domain containing 2)	0	10.4	4.4	16.5
CD79B (CD79b molecule)	0	1.6	-13.2	16.4

Main list, from the start:
target	two-siRNA summed score (-2 to +2)	mean protection from cisplatin (shift in death) (%)	protection from cisplatin (shift in death), siRNA C (%)	protection from cisplatin (shift in death), siRNA D (%)
CIP2A (cellular inhibitor of PP2A)	0	-21.9	0.9	-44.6
RUSC2 (RUN and SH3 domain containing 2)	0	10.4	4.4	16.5
CD79B (CD79b molecule)	0	1.6	-13.2	16.4
CAPG (capping actin protein, gelsolin like)	0	-4.1	-15	6.9
NPC2 (NPC intracellular cholesterol transporter 2)	-2 (active)	-12.6	-14.8	-10.4
CNOT11 (CCR4-NOT transcription complex subunit 11)	-1	1.2	-9.7	12.1
MEF2A (myocyte enhancer factor 2A)	0	-1.4	3.2	-5.9
SNX16 (sorting nexin 16)	0	-0.3	-1.2	0.6
TUBAL3 (tubulin alpha like 3)	0	11.8	12	11.5
SNX33 (sorting nexin 33)	0	-0.8	-4	2.4
PYDC1 (pyrin domain containing 1)	0	0.6	4.9	-3.7
SLC25A4	-1	-6.7	5.4	-18.8
CRABP1 (cellular retinoic acid binding protein 1)	-1	-5.8	-13.3	1.8
PDF (peptide deformylase, mitochondrial)	1	11.1	3.4	18.8
EPC1 (enhancer of polycomb 1)	0	0.8	12.6	-11
MATR3 (matrin 3)	1	8.3	7.8	8.8
CFP (complement factor properdin)	0	10.5	16.1	4.9
STS (steroid sulfatase)	0	15	21.3	8.7
DDN (dendrin)	2 (active)	15.1	19.7	10.5
SNX32 (sorting nexin 32)	0	1.5	-1.2	4.1
KIFC2 (kinesin family member C2)	1	19.7	16.3	23.1
ZNF423 (zinc finger protein 423)	1	11.1	5.1	17.2
AMER2 (APC membrane recruitment protein 2)	1	12.2	7.2	17.3
GABRR2 (gamma-aminobutyric acid type A receptor subunit rho2)	0	-0.4	-4.8	4
LMOD1 (leiomodin 1)	0	0	-6.8	6.9
CCN3 (cellular communication network factor 3)	0	3.9	4.5	3.4
SYDE1 (synapse defective Rho GTPase activating protein 1)	0	14.2	19.2	9.1
FLJ39207	0	-6.3	-5.9	-6.7
LINC00921 (long independently transcribed non-coding RNA 921)	1	17.7	2.5	33
ABHD16A (abhydrolase domain containing 16A, phospholipase)	0	17.1	28.6	5.6
CASP1 (caspase 1)	-2 (active)	-24.8	-27.6	-21.9
ZDHHC8BP (ZDHHC8B, pseudogene)	0	4.9	2.3	7.5
NR1H2 (nuclear receptor subfamily 1 group H member 2)	0	-2.7	-1.9	-3.4
HES6 (hes family bHLH transcription factor 6)	-1	-2.2	-18.8	14.4
AZU1 (azurocidin 1)	1	4.2	18.6	-10.1
SFT2D3 (SFT2 domain containing 3)	0	7.3	15.9	-1.2
LOC400368	0	-0.4	3.8	-4.7
XKR8 (XK related 8)	0	7.8	4.3	11.3
LOC388365	0	-4.5	-14.2	5.1
IFNA6 (interferon alpha 6)	0	1.2	-3.2	5.7
RNF123 (ring finger protein 123)	0	-6.6	-7.1	-6.2
ACP1 (acid phosphatase 1)	-1	1	-10.4	12.3
ELP5 (elongator acetyltransferase complex subunit 5)	0	6.8	-1.4	15.1
JAKMIP2 (janus kinase and microtubule interacting protein 2)	1	14.5	7.7	21.3
LOC440557	0	9	14.1	3.8
EVA1B (eva-1 homolog B)	0	2.7	9	-3.6
SSBP1 (single stranded DNA binding protein 1)	0	1.9	-2	5.7
SMN1 (survival of motor neuron 1, telomeric)	0	3.3	10.3	-3.7
LOC442108	0	7.8	10.7	4.9
H2AC17 (H2A clustered histone 17)	1	10.9	14.2	7.6
GUCY1B1 (guanylate cyclase 1 soluble subunit beta 1)	0	2.5	-0.1	5
TGM7 (transglutaminase 7)	-1	-12.2	-12.6	-11.7
OR8G1 (olfactory receptor family 8 subfamily G member 1)	1	4.5	13.6	-4.5
CDRT15P3 (CDRT15 pseudogene 3)	0	4.4	-0.5	9.3
LOC400644	0	-5.7	-14.4	3.1
OTOS (otospiralin)	0	-5.9	-10	-1.7
TM9SF3 (transmembrane 9 superfamily member 3)	1	9.1	14.6	3.7
